# Measurements taken from the supplement of paper PMC8728848.
# This is one part of the list.
# B1: PX15642A-pgi-501-20-501 (Parabacteroides gingivalis) (protein)
# chain: CELDRDPEGKDFQQPYTSFVQTKQNRDGLYALLRNTENPRMHFYQELQSDMYCTTITDGNSLAPFVNWDLGILNDHGRADEDEVSGIAGYYFVYNRLNQQANAFVNNTEAALQNQVYKNSTEIANAKSFLAEGKVLQALAIWRLMDRFSFHESVTEVNSGAKDLGVILLKEYNPGYIGPRATKAQCYDYILSRLSEAIEVLPENRESVLYVSRDYAYALRARIYLALGEYGKAAADAKMVVDKYPLIGAADASEFENIYRSDANNPEIIFRGFASATLGSFTATTLNGAAPAGKDIKYNPSAVPFQWVVDLYENEDFRKSVYIAKVVKKDKGYLVNKFLEDKAYRDVQDKPNLKVGARYFSVAEVYLILVESALQTGDTPTAEKYLKALSKARGAEVSVVNMEALQAERTRELIGEGSRLRDMVRWSIPNNHDAFETQPGLEGFANTTPLKAQAPVGFYAYTWEFPQRDRQTNPQLIKNWPI
# Key:
# Assay in all cases: glycan array binding signal (z-score within array); higher = stronger binding
# Conditions in all cases: glycan notation: IUPAC condensed, linker removed
# [1] = target: GlcNAc(b1-3)Gal(b1-4)GlcNAc(b1-3)Gal(b1-4)GlcNAc(b1-3)GalNAc
# How it was run: (§1)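 Glycan array binding is given as a within-array Z-score, which can be read as non-binding when negative. The arrays, 3228 of them, came from the Consortium for Functional Glycomics database and were retained only where the protein sequence was available. Z-scores were averaged across arrays of the same protein sequence at different concentrations or buffers and across linkers.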
# [2] = target: GlcNAc(b1-3)Gal(b1-4)GlcNAc(b1-3)GalNAc
# How it was run: as §1
# [3] = target: GlcNAc(b1-3)Gal(b1-4)GlcNAc(b1-3)[GlcNAc(b1-3)Gal(b1-4)GlcNAc(b1-3)]GalNAc
# How it was run: as §1
# [4] = target: GlcNAc(b1-3)Gal(b1-4)GlcNAc(b1-6)[Gal(b1-3)]GalNAc
# How it was run: as §1
# [5] = target: GlcNAc(b1-3)Gal(b1-4)GlcNAc(b1-6)[GlcNAc(b1-3)Gal(b1-3)]GalNAc
# How it was run: as §1
# [6] = target: GlcNAc(b1-3)Gal(b1-4)GlcNAc(b1-6)[GlcNAc(b1-3)]Gal(b1-4)GlcNAc
# How it was run: as §1
# GlcNAc(b1-3)GalNAc = target: GlcNAc(b1-3)GalNAc
# How it was run: as §1
# GlcNAc(b1-3)Man = target: GlcNAc(b1-3)Man
# How it was run: as §1
# [7] = target: GlcNAc(b1-3)[GlcNAc(b1-4)][GlcNAc(b1-6)]GlcNAc
# How it was run: as §1
# [8] = target: GlcNAc(b1-3)[GlcNAc(b1-6)]Gal(b1-4)GlcNAc
# How it was run: as §1
# [9] = target: GlcNAc(b1-3)[GlcNAc(b1-6)]GalNAc
# How it was run: as §1
# [10] = target: GlcNAc(b1-4)Gal(b1-4)GlcNAc
# How it was run: as §1
# GlcNAc(b1-4)GlcNAc = target: GlcNAc(b1-4)GlcNAc
# How it was run: as §1
# [11] = target: GlcNAc(b1-4)GlcNAc(b1-4)GlcNAc
# How it was run: as §1
# [12] = target: GlcNAc(b1-4)GlcNAc(b1-4)GlcNAc(b1-4)GlcNAc(b1-4)GlcNAc
# How it was run: as §1
# [13] = target: GlcNAc(b1-4)GlcNAc(b1-4)GlcNAc(b1-4)GlcNAc(b1-4)GlcNAc(b1-4)GlcNAc
# How it was run: as §1
# [14] = target: GlcNAc(b1-4)[GlcNAc(b1-6)]GalNAc
# How it was run: as §1
# [15] = target: GlcNAc(b1-6)Gal(b1-4)GlcNAc
# How it was run: as §1
# GlcNAc(b1-6)GalNAc = target: GlcNAc(b1-6)GalNAc
# How it was run: as §1
# [16] = target: GlcNAc6S(b1-3)Gal(b1-4)GlcNAc
# How it was run: as §1
# Kdn(a2-3)Gal(b1-3)GalNAc = target: Kdn(a2-3)Gal(b1-3)GalNAc
# How it was run: as §1
# Kdn(a2-3)Gal(b1-3)GlcNAc = target: Kdn(a2-3)Gal(b1-3)GlcNAc
# How it was run: as §1
# Kdn(a2-3)Gal(b1-4)Glc = target: Kdn(a2-3)Gal(b1-4)Glc
# How it was run: as §1
# Kdn(a2-3)Gal(b1-4)GlcNAc = target: Kdn(a2-3)Gal(b1-4)GlcNAc
# How it was run: as §1
# [17] = target: Kdn(a2-3)Gal(b1-4)[Fuc(a1-3)]GlcNAc
# How it was run: as §1
# Kdn(a2-6)Gal(b1-4)GlcNAc = target: Kdn(a2-6)Gal(b1-4)GlcNAc
# How it was run: as §1
# [18] = target: Man(a1-2)Man(a1-2)Man(a1-3)Man
# How it was run: as §1
# [19] = target: Man(a1-2)Man(a1-2)Man(a1-6)[Man(a1-3)]Man
# How it was run: as §1
# Man(a1-2)Man(a1-3)Man = target: Man(a1-2)Man(a1-3)Man
# How it was run: as §1
# [20] = target: Man(a1-2)Man(a1-3)[Man(a1-2)Man(a1-6)]Man
# How it was run: as §1
# [21] = target: Man(a1-2)Man(a1-3)[Man(a1-2)Man(a1-6)]Man(a1-6)[Man(a1-2)Man(a1-2)Man(a1-3)]Man
# How it was run: as §1
# [22] = target: Man(a1-2)Man(a1-3)[Man(a1-2)Man(a1-6)]Man(a1-6)[Man(a1-2)Man(a1-2)Man(a1-3)]Man(b1-4)GlcNAc(b1-4)GlcNAc
# How it was run: as §1
# [23] = target: Man(a1-2)Man(a1-3)[Man(a1-6)]Man(a1-6)[Man(a1-2)Man(a1-3)]Man(b1-4)GlcNAc(b1-4)GlcNAc
# How it was run: as §1
# [24] = target: Man(a1-2)Man(a1-6)[Man(a1-3)]Man(a1-6)[Man(a1-2)Man(a1-2)Man(a1-3)]Man
# How it was run: as §1
# [25] = target: Man(a1-2)Man(a1-6)[Man(a1-3)]Man(a1-6)[Man(a1-2)Man(a1-2)Man(a1-3)]Man(b1-4)GlcNAc(b1-4)GlcNAc
# How it was run: as §1
# Man(a1-3)[Man(a1-6)]Man = target: Man(a1-3)[Man(a1-6)]Man
# How it was run: as §1
# [26] = target: Man(a1-3)[Man(a1-6)]Man(a1-6)[Man(a1-2)Man(a1-3)]Man(b1-4)GlcNAc(b1-4)GlcNAc
# How it was run: as §1
binder,measurement,setting,value
B1,glycan array binding signal (z-score),[1],-0.403
same,glycan array binding signal (z-score),[2],-0.337
same,glycan array binding signal (z-score),[3],0.014
same,glycan array binding signal (z-score),[4],-0.635
same,glycan array binding signal (z-score),[5],0.406
same,glycan array binding signal (z-score),[6],-0.174
same,glycan array binding signal (z-score),GlcNAc(b1-3)GalNAc,-0.32
same,glycan array binding signal (z-score),GlcNAc(b1-3)Man,0.647
same,glycan array binding signal (z-score),[7],-0.438
same,glycan array binding signal (z-score),[8],0.524
same,glycan array binding signal (z-score),[9],-0.797
same,glycan array binding signal (z-score),[10],-0.501
same,glycan array binding signal (z-score),GlcNAc(b1-4)GlcNAc,0.019
same,glycan array binding signal (z-score),[11],-0.843
same,glycan array binding signal (z-score),[12],0
same,glycan array binding signal (z-score),[13],-1.11
same,glycan array binding signal (z-score),[14],-0.12
same,glycan array binding signal (z-score),[15],-0.226
same,glycan array binding signal (z-score),GlcNAc(b1-6)GalNAc,0.285
same,glycan array binding signal (z-score),[16],-0.708
same,glycan array binding signal (z-score),Kdn(a2-3)Gal(b1-3)GalNAc,-0.472
same,glycan array binding signal (z-score),Kdn(a2-3)Gal(b1-3)GlcNAc,-0.011
same,glycan array binding signal (z-score),Kdn(a2-3)Gal(b1-4)Glc,0.612
same,glycan array binding signal (z-score),Kdn(a2-3)Gal(b1-4)GlcNAc,-0.559
same,glycan array binding signal (z-score),[17],0.042
same,glycan array binding signal (z-score),Kdn(a2-6)Gal(b1-4)GlcNAc,-0.157
same,glycan array binding signal (z-score),[18],-1.25
same,glycan array binding signal (z-score),[19],-0.477
same,glycan array binding signal (z-score),Man(a1-2)Man(a1-3)Man,-0.136
same,glycan array binding signal (z-score),[20],0.122
same,glycan array binding signal (z-score),[21],-0.58
same,glycan array binding signal (z-score),[22],-1.02
same,glycan array binding signal (z-score),[23],-1.01
same,glycan array binding signal (z-score),[24],-0.321
same,glycan array binding signal (z-score),[25],-0.671
same,glycan array binding signal (z-score),Man(a1-3)[Man(a1-6)]Man,0.452
same,glycan array binding signal (z-score),[26],0.018

# For convenience, some entries already given.
binder,measurement,setting,value
B1,glycan array binding signal (z-score),Man(a1-3)[Man(a1-6)]Man,0.452
same,glycan array binding signal (z-score),[26],0.018
